Reference: patent publication US20240285543A1, “NANOPARTICLE-MEDIATED ENHANCEMENT OF IMMUNOTHERAPY TO PROMOTE FERROPTOSIS-INDUCED CYTOTOXICITY AND ANTITUMOR IMMUNE RESPONSES” (Memorial Sloan-Kettering Cancer Center, priority 2021, published 2024)
At least one structure is not confirmed: it was looked up by name or label, or the drawing left a doubt.

Test system: BMDM
Experiment: macrophage (BMDM) polarization, cell death and FTH1
Type: cell-based

For `CC(=O)N(O)CCCCCNC(=O)CCC(=O)N(O)CCCCCNC(=O)CCC(=O)N(O)CCCCCN` [deferoxamine (DFO), deferoxamine], the “effect of iron chelator on C′ dot-induced FTH1 upregulation” value was “blocked”.
